No constants are given. Whether binding was seen depends on the method and setting. Sequences can lack the tags named with a protein.

Assay [1] concerns the target T1, His-CowN (Gluconacetobacter diazotrophicus CowN, His-tagged, refolded, monomeric fraction) (Gluconacetobacter diazotrophicus) (UniProt A9H4F6).
T1 sequence: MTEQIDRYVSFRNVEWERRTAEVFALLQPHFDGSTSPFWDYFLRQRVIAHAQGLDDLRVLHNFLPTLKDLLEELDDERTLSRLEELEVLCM
Kind of assay: pull-down; His-CowN on Ni-NTA resin, 10 min incubation, three washes; 50 mM Tris pH 8, 60 mM NaCl, 1 mM DT; 2.5 μM MoFeP, 15 μM FeP, 15 μM CowN; nonturnover and turnover conditions with CO; SDS-PAGE; both purified.

The target of assay [2] is molybdenum-iron protein (MoFeP) of Gluconacetobacter diazotrophicus Mo-nitrogenase (Gluconacetobacter diazotrophicus). As to the kind of experiment: cross-linking; EDC 12.5 mM, 30 min; 50 mM HEPES pH 8, 60 mM NaCl, 5 mM DT; 2.5 μM MoFeP, 15 μM FeP, 15 μM CowN; nonturnover and turnover (5 mM MgCl2, 5 mM ATP) conditions with 0.1 atm CO; SDS-PAGE; both purified.

“molybdenum-iron protein (MoFeP) of Gluconacetobacter diazotrophicus Mo-nitrogenase (complex)”: in assay [1], the binding entry was “no binding (tested: 15 μM CowN, 2.5 μM MoFeP)”.

B1: His-CowN (Gluconacetobacter diazotrophicus CowN, His-tagged, refolded, monomeric fraction) (protein, UniProt A9H4F6 1-91)
chain: T1 sequence
Take B1: the binding entry in assay [2] was “no binding (tested: 15 μM CowN, 2.5 μM MoFeP)”.

Values taken from PMC8047169.
